# Taken from: PubChem BioAssay AID504786 (Drosophila RNAi Screening Center, 2011)
# Assay: 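Knock-downs reducing HIF reporter induction by the iron chelator DFO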 (primary screen)
# Cells: Drosophila S2 cells with a stable HIF luciferase reporter
# Knock-down reagent: long dsRNA against Drosophila genes, about 0.2 µg dsRNA per well of a 384-well plate
# Time to read-out: three days of knock-down, then 20 h of DFO before reading
# Conditions: desferrioxamine (DFO) at 100 µM, an iron chelator that mimics hypoxia, for 20 h
# Measurement: 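Firefly luciferase driven by the mouse ldh-a hypoxia-response element, measured after 20 h of 100 µM DFO; z-scores per plate, higher means more signal lost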
# Direction: z-score: higher = stronger loss of HIF reporter signal
# In all, the deposit lists about 21,000 reagents; below is a random part of those that have a named target and a result. 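Primary screen; positive scores mean lost reporter signal, so the sign may be inverted from the usual convention.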 A plus sign joins genes that one reagent is predicted to hit. No sequences are given here.
gene,dsRNA,"z-score, replicate 1","z-score, replicate 2","z-score, replicate 3","z-score, replicate 4"
g,DRSC20335,0,0.5,,
trk,DRSC03625,-0.1,0.1,,
ftz,DRSC12626,-0.1,-0.2,,
CG15649,DRSC04240,-0.3,-0.6,,
Alp11,DRSC20080,-0.3,-0.2,,
CG7889,DRSC20066,-0.4,-0.4,,
Marc,DRSC06614,-0.2,-0.2,,
Dbp45A,DRSC07395,-0.4,-0.2,,
Rpt5,DRSC16842,8.5,5.7,,
Had2,DRSC05971,-0.4,-0.3,,
Atg3,DRSC10736,-0.3,-0.4,-0.4,-0.4
rdx,DRSC14526,2.5,3.4,,
rdx,DRSC16580,2,1.3,,
Dok,DRSC18204,-0.1,-0.4,,
CG18233,DRSC10308,-0.3,-0.7,,
CG14610 + asRNA:CR42738,DRSC12554,-0.2,0.1,,
CG4622,DRSC04479,0.1,0.2,,
CG10887,DRSC14277,-0.1,-0.4,,
CG30380,DRSC05069,-0.1,-0.1,,
Rdl,DRSC11264,0,0,,
l(1)sc,DRSC18789,-0.2,-0.3,,
Zcchc7,DRSC11099,-0.2,-0.2,,
sws,DRSC18843,0.1,-1.3,0,-0.4
Ir48a,DRSC05301,-0.1,-0.2,,
GNBP3,DRSC11170,-0.4,-0.1,,
Rbf2,DRSC16816,-0.2,-0.5,,
CG43980,DRSC11500,-0.5,-1.1,,
CG43980,DRSC11646,-0.4,-0.6,,
Cyp309a1,DRSC00747,-0.3,0.1,,
l(3)05822,DRSC16202,-0.3,-0.4,,
Rheb,DRSC12148,4.7,3,,
brv3,DRSC18657,-0.4,-0.5,,
fs(1)Yb,DRSC18777,-0.3,-0.9,,
JhI-26,DRSC06851,-0.3,-0.5,,

Laid out differently: results already given.
Cyp309a1 [DRSC00747] — z-score, replicate 1: -0.3; z-score, replicate 2: 0.1
l(3)05822 [DRSC16202] — z-score, replicate 1: -0.3; z-score, replicate 2: -0.4
